Measurements taken from PMC8051604.

Target: CitCHIL1, split-luciferase fusion (LCI) (Citrus reticulata cv. Suavissima (Ougan))
Assay: split reporter; firefly luciferase complementation imaging (LCI); nLUC and cLUC constructs co-infiltrated into N. benthamiana leaves; LUC activity 2 days after infiltration, 0.2 mM luciferin, NightSHADE LB 985

B1: AtCHS (Arabidopsis chalcone synthase, At5g13930), split-luciferase fusion (LCI) (enzyme, UniProt P13114 1-395)
chain: MVMAGASSLDEIRQAQRADGPAGILAIGTANPENHVLQAEYPDYYFRITNSEHMTDLKEKFKRMCDKSTIRKRHMHLTEEFLKENPHMCAYMAPSLDTRQDIVVVEVPKLGKEAAVKAIKEWGQPKSKITHVVFCTTSGVDMPGADYQLTKLLGLRPSVKRLMMYQQGCFAGGTVLRIAKDLAENNRGARVLVVCSEITAVTFRGPSDTHLDSLVGQALFSDGAAALIVGSDPDTSVGEKPIFEMVSAAQTILPDSDGAIDGHLREVGLTFHLLKDVPGLISKNIVKSLDEAFKPLGISDWNSLFWIAHPGGPAILDQVEIKLGLKEEKMRATRHVLSEYGNMSSACVLFILDEMRRKSAKDGVATTGEGLEWGVLFGFGPGLTVETVVLHSVPL
binding: binds

These are yes or no findings as the source states them, for the method shown. In cells and extracts the contact can be indirect. A result given as binding can be weak or reduced; the word gives no strength. Tags and fused reporters may be left off the sequences shown.
